Assay results taken from a protein production outcome set (Wang et al. 2014).

Experiment: label from the status in PepcDB records
For “MRQADSQTQPSPAEQEMPQPAGPSNSSPPTMGPQQTGSRKRKAAEVDQGAGTSSSPGPAAAMATVGAGNAEGSLMLTKRPRRPIAHLSMVNYLKGRALGADGHPGFAGFEGDLRSYGVLRLPELLRERQLTLGPLNKVFASQWLNARQVVCGTKCNTLFVVDVKTDHIMRIPLMRDRVPDLSRGPPSCGIHAVELNPSKTLLATGGENPNSLAVYQLPTLDPVCLGDCQGHRDWIFAIAWMSDTVAVSGSRDGTVALWKVDPDMFNGSIAWHKDAGLPVYAHISPTDMEAIPKATTNPGNRKVRALAFSNKNQELGAVSLDGYFHLWKARSSLSRLLSLRLPYCRENVCLTYCDEFSLYAVGSQSHVSFLDLRQGQQNIPPLCSREGGTGVRSLSVHQHIVTVGTGHGSLLFYDIRAQKFLEERSAANPDMFPVPSGRKLKLTCGSGWINQDDLLENYVAGVEDFPNALYTHCYNWPEMKLFVGGGPLASGLHGNYAGLWS”, the protein production was “failed”. With “MSLKIQFDFPASFWTEALPIGNGNLGAMVFGKVEKERIALNEDTLWSGYPKDWNNPKAKEVLPKVRELIAQEKYEEADQLSRDMMGPYTQSYLPFGDLNIFMDHGQVVAPHYHRELDLSTGIVTVTYTIGGVQYTRELFVTYPDRAIVVRLTASKEGFLSFRAKLDSLLRHVSSVGAEHYTISGTAPEHVSPSYYDEENPVRYGHPDMSQGMTFHGRLAAVNEGGSLKVDADGLHVMGATCATLYFSASTSFDPSTGASCLERDPSLRTIETIKAICKRGYKEIVNRHLEDYAKLFNRVSLHLGESIAPADMSTDQRIKEYGSRDLGLVELLFQYGRYLMIASSRPGTQPANLQGIWNEETRAPWSSNYTLNINAEMNYWPAETCNLAELHKPLIHFIERLAANGKKTAEINYGARGWVAHHNADLWGQTAPVGDFGHGDPVWAFWPMGGVWLTQHLWEHYTFGEDEAYLRDTAYPIMKEAALFCLDWLIENEAGYLVTSPSTSPEQRFRIGEKGYAVSSATTMDLSLIAECFDNCIQAAKRLSIDEDFVKALSDAKQRLLPLQIGKRGQLQEWSNDFEDEDVHHRHVSHLVGIYPGRLITEQSAPNLFEAAKTSLEIRGDEGTGWSLGWKISLWARFKDGNRCERLLSNMLTLIKEDESMQHRGGVYANLFGAHPPFQIDGNFSATAGIAEMLLQSHQGYLEFLPALPDSWKDGYVKGLRGRGGYEVDLAWTNGALVKVEIVSTKTQTCEVLTRISMRITESGEEVEGDVLDSGRMSFQVEKGKRYVLNRTTDGEGHHHHHH” the protein production was “not failed”. For “MPSVQIGPPPASQSAIEAVRTVIITDEDLVKEKVCAICKEEFEVGEEGKELKCLHLYHSSCIVSWLNIHNTCPICRFEVNLGVSESNVDEGGSYNIDNDRSNRFRTRVCSLWPLRMMIDWVHNLIGKIPPPDIAFMAFLLCLYGF”, the protein production was “failed”. For “MENPQDIFSSNGGCLSDIVIEKYLVESKESVSHVQLACSMQDCAFPLDGTELCIWNTKDPSHQLLILRGHHQPITAMAFGNKVNPLLICSASLDYVIMWNLDECREKVLQGLVPRGTVMGSLLGKVLCLQLSLDDHVVAVCAGNKIFMLDIEQRFSVTYIERPDVNNRHKVPPPTFLHTFSQTQAVRAELQGHLGPVTAVEFCPWRAGTLISASEDRGFKVWDHCTGSLIYSSSVLSAYPLLSLFIDAESRQLVTGCADGQLWIFSLMDGHHYRRVARVDLRKKTETFSTRRVKSGLCSQPEESQLPSTSALGKGEQVEVTFPVLRLAPCDLSLIPNSACGCLSSENTRCVWIGSSVGLFVFNLANLEVEAALYYKDFQSLSILLAGSCALRNRTADQKVLCLLASLFGGKIAVLEINPAALVRAQQCPSMGQSLSVPASSCVLPTSPLYLGIAKEKSTKAASEQRRAARNVMKDQRLVFHSKVRSSGYASAPHVTMFSPKTNIKSEGKGSSRSRSSCAREAYPVECAVPTKPGPQVAAAPTCTRVCCIQYSGDGQWLACGLANHLLLVFDASLTGTPAVFSGHDGAVNAVCWSQDRRWLLSAARDGTLRMWSARGAELALLLGKDMFSKPIQSAQFYYIDAFILLSSGPEFQLLRYHIDTCKDEIKRYKQKSKSKLICRLSTTGAVDMTSLSAVNDFYSHIVLAAGRNRTVEVFDLNAGCSAAVIAEAHSRPVHQICQNKGSSFTTQQPQAYNLFLTTAIGDGMRLWDLRTLRCERHFEGHPTRGYPCGIAFSPCGRFAACGAEDRHAYVYEMGSSTFSHRLAGHTDTVTGVAFNPSAPQVQSCSVAHAGVQWHDLGSLQPPPSRFKQFFCLSLPSSWDYSLPQLPWMVNSSSF”, the protein production was “failed”. With “LRLSEERYHLAMDAVEDGLWDWYLDSEHIICNPSYYSMLGYKPNEFPALVSAIDQLTHPDDRIRVEEYRNQYLENPVDAYEIEFRILGKNSSYHWVLSRGRVVEFTTDGQPKRMVGTHKDITRHKSNEVALLEAKQDAELANLYKSEFLANMSHEIRTPMNAIIGML” the protein production was “failed”. In the case of “MADMWILDDKDKKQTIISSEAKEACRFYDAPFREELNVGSSFSFVADADHEDSVHIKPENQVVFEDRRGRKRNFVIKELEDADDGANARIRAYCEPALSELYDEFVTDIRPQNRTAQYVLDRILEGTRWRANVPVDLGLHSTNFYRISVMEAINQILQIWGGEYYDEVVFDENDNIVDRVIHILPRRGQDTGKRAEIDKDIQEITRTVLSYPVTALYGYGASLETEGGGNTRYIDFSDVEWVKANGDPVDKPKGQEWVGDPDLLEKFGRIMYDGQTKRHRFQKWQDDSIEDPAELLRKTYEALINHEMVQVNYSLKLELLEYISGYEHEAVDLGDTMIAIDDNFRHPIEVQTRVIAIEYDLSDPVNTAQVEMGQFLDLYSTEKRIKELETTIDTNRGKWDNGGDPIIGDGSFPDKVPPVPSNIKVESLFQGVSITWDYNPSSYIAAYQIFASPNKGFTPLDENLIFSGKLSGYEHTPGVDQVWYYRMRTINTHGTPSPFTQEFTGVTRRILTDDIVFGAVTAEKLANLSVTAEKLSQKFDESNILPGSVLRPGELGNVNGASWSVKEGEFNEVTVTRKADDTRAGFGFSAFYRSTLRLTKGEKYTLSFEVKRNNTLNINFIYLKDDSGQYQLDAPDFNDISSFPSDEFVRVDYVFQSPITTETARLWLGGNKVGDENPSVTYRKIQIRKGDVRKEFAFSPYDVMLTEQAVSSALIAKAAIQSAHIQEAAITTAAIANGAITRAKLGTAIIGTAQIEDGAITNAKIANLSADKINAGTIKGITIEGSLIRGARIEPLSSSSAYESYIEANKIYQLRKTRYGGYQDRYEELDISSGSIIQDYGNRLDDDSHESLNKVEISKGKVALSSGKTFSTGTTSRMEIFSQLGTSDNGLYGGNFITMYRNDEKVFELRQDSWTDPDTNVIMPQMSIRAEKVDFVSFFEDVSVYSEKSIYHSAERSVALFSKDGPVTVYAKDGMKLNRGSNGEYTTSITADDALKIASKGTITLEDTEFNGASLYLGTDSRGPRIWSYSINKRTTTAAANLHMDQYGTFHKVTSSQKYKINIEEFPNDRVENILKLNPKTWFDKKAVEAYAEILESGQEDDENKPYFERIPGLIAEEVFEAGLKEFVFFGKPDENGNREIEGIMYDRLFALLIPIVRDLKTRIENIESTLN”, the protein production is reported as “failed”. With “FVNIGERCNVAGSRKFLRLVNEKKYDEALSIARQQVEDGALVIDVNMDDGLLDARTEMTTFLNLIMSEPEIARVPVMIDSSKWEVIEAGLKCLQGKSIVNSISLKEGEEVFLEHARIIKQYGAATVVMAFDEKGQADTAARKIEVCERAYRLLVDKVGFNPHDIIFDPNVLAVATGIEEHNNYAVDFIEATGWIRKNLPGAHVSGGVSNLSFSFRGNNYIREAMHAVFLYHAIQQGMDMGIVNPGTSVLYSDIPADTLEKIEDVVLNRRPDAAERLIELAEA” the protein production was “not failed”. In the case of “MSFRDDNTEEGRNDLRRPFLHTGSWYRMGSRQSSMLESSQVIRDSSISVLACVLIVALGPIQFGFTCGYSSPTQAAITKDLGLTVSEYSVFGSLSNVGAMVGAIASGQIAEYVGRKGSLMIAAIPNIIGWLSISFAKDTSFLYMGRLLEGFGVGIISYTVPVYIAEIAPQTMRGALGSVNQLSVTIGIMLAYLLGLFVPWRILAVLGVLPCTLLIPGLFFIPESPRWLAKMGLTDDFETSLQVLRGFETDITVEVNEIKRSVASSSKRSAVRFVDLKRRRYYFPLMVGIGLLALQQLGGINGVLFYSSTIFESAGVTSSNVATFGVGVVQVVATGIATWLVDKAGRRLLLMISSIGMTISLVIVAVAFYLKEFVSPDSNMYNILSMVSVVGVVAMVISCSLGMGPIPWLIMSEILPVNIKGLAGSIATLLNWFVSWLVTMTANMLLAWSSGGTFTLYALVCGFTVVFVSLWVPETKGKTLEEIQALFR”, the protein production is reported as “failed”. In the case of “MRLGTSAFSDAPPVELRANWSEEDLETVIRAVYRQVLGNDYVMASERLVSAESLLRNGKITVREFVRAVAKSELYKEKFLYGNFQTRVIELNYKHLLGRAPYDESEVIFHLDLYENEGFDADIDSYIDSPEYTNSFGDWVVPYYRGFNTQPGQKTVGFNRIFRLYRGYANSDRAQAEGSMSRLARDLATNRANTVVPPSNSDTAFAYYTPSADVPPRACLGGSFGESGRVYRIEVAGIRQPGYPGVRRSSTAFLVPYEQLSAKMQQLQRTGARIISVNPALEHHHHHH”, the protein production is reported as “failed”. In the case of “MIRPGQAQQEPSSLNRPDQHVTLRPAAKQDLPVFMRELQEAFAVAVIEEFGSSPSEPIPSDRDIQQSFDAPGAEVLHIVADGERVGGVVVRIDAATQHNSLDLFFIATHAHGRGLGTAAWRAIEQRYPQTKVWQTHTPYFERRNIHFYVNKCGFKIVEYYNARHPDPHEHELEHEPDGLPPDGGFFRFEKIC”, the protein production is reported as “failed”. For “EVKPEINFVNVGERCNVAGSRKFLRLINEKKYDEALSIARKQVEDGALIIDVNMDDGLLDAKEEMTTFLNLVASEPEIARVPVMIDSSKWEVIEAGLKCLQGKSIVNSISLKEGEEKFLEHARTVRQYGAAVVVMAFDEKGQADTATRKIEVCERAYHLLVDKIGFNPHDIIFDPNVLAVATGIEEHNNYAVDFIEATAWIKKNLPGAHISGGVSNLSFSFRGNNYIREAMHAVFLYHAIQKGMDMGIVNPGTSVLYTDIPADVLERIEDVVLNRRSDAAERLIELADRLKEASAGNTSAGQP”, the protein production was “not failed”. With “MSQAPKRKRPEDLRSHRWYGVKDLRAFGHRSRTAQMGYHRSDYAGKPVIAIINTWSDINPCHSHFKQRVEEVKRGIWQAGGFPVEMPAMSLSEPFQKPTTMLYRNLLAMETEELLRSYPADGCVLMGGCDKTTPALLMGAVSMGLPTVFVPAGPMLRGNWNGNTLGSGSDTWKYWAELRAGNITEEDWQGVEDGIARSPGHCMTMGTASTMTAAVEALGLCLSGYSSIPAPDSRHAQMASLTGKRIVEMVWEDLKPADILTAASFDNAVRTVLALSGSTNAVVHLIALARRAGFGLDLERFDHLARSTPVLANLRPAGQYLMEDFYYAGGLRALLAQLGDLLDTRQMTVDGRTLGENIAGARVFNDEVIRSRERALIERDGLAVLRGNLAPDGAVIKPAAMEARLQRHTGRAVVFKDYNDMAERIDAPDLDIDADSVIVLQNAGPQGAPGMPEWGQLPIPQKLLKQGVRDMVRISDARMSGTSYGACVLHVAPEAYVGGPLALVRSGDRIALDVPGRRIDVLISDEELAARKAAWQAPPPKFERGFGVLYLKHIGQADSGCDFDFLQTRPQQAAEGEPEIH” the protein production was “failed”. With “MECKTKGKHQHSLNLLDKIKNMKELEEMIDVVLIAEEEKFPCHRLVLAAFSPYFKAMFTCGLLECTQREVILYDITAESVSVILNYMYSAVLEINYANVQTVAMAAYFMQMEEVFSVCQNYMMDHMDASNCIGIYYFAKQIGAEDLSDQSKKYLYQHFAEVSLHGEILDIEAHQLLALIKSDDLNISREESILDLVLRWVNHNQALRTEHLVELLKQVRLELINASFLRQALRRNTMLLCDGSCIDIIQNAFKAIKTPQQHPSNLRYGMETTSLLLCIGNNSSGIRSRHRSYGDASFCYDPVSHKTYFISSPKYGEGLGTVCTGVVMENNTVIVAGEATATRLSRQKSKNIEIYRCVSHSRFGIFCFVLLR” the protein production was “failed”. For “MKKIKTAFALPLFWLLFKVSKDMHKIQVDGQAWCQWQHKNFTLWNMCSLFIGFKEFRNLFYYRIGYLHHLIEWIFPRMTNLYITTPRSDVDSGLIIQHGFATIISAKQIGKNCKIYQQVTIGYDHTLQAPIIGDNVEICCGAKVIGGVTIGNNVIIGANAVVIKDVPNNCIVAGVPAKIIKKILEHHHHHH”, the protein production was “failed”.
